## Results of single-concentration screens

From ChEMBL document CHEMBL3988442, “University of Dundee, Small-Polar-MMV Screening Library” (2021).

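Assay of Toxoplasma gondii numbers, read through their beta-galactosidase reporter with a colour substrate. Tested at 50 µM. The record gives no direction; the compounds picked for IC50 retests had high values, so higher reads as fewer parasites. About 18,000 compounds were tested under these conditions; 0.94% (about 170) showed 50% or more at least once.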

The filed quantity is “Percent Effect” (%).
The record does not define 0% and 100%; most values in the screen are far below 50% and negative numbers occur (in some assays of this library far below -100).
The compounds are a random part of those screened.

| compound | Percent Effect |
|---|---|
| `CCCNC(=O)N1CCCCC1C1OCCO1` (stereo not drawn) | -1.645% |
| `CCOCCCC(=O)NCCC(=O)Nc1ccccc1` | 15.41% |
| `CCN1CCN(C(=O)Nc2ccccc2)CC1` | 2.516% |
| `Cc1cccn2cc(CNc3ccc(C#N)nc3)nc12` | -5.853% |
| `Cc1ncc(CN2CCn3ccnc3C2)s1` | 4.595% |
| `COCc1nc(CN(C)CC2COCCO2)no1` (stereo not drawn) | 22.84% |
| `N#CCCN1CCN(Cc2ccc(C#N)cc2)CC1` | -2.619% |
| `CNC(=O)CSCCCOC(C)C` | 13.1% |
| `COCCn1nc(C(=O)Nc2ncc(C)s2)ccc1=O` | -8.886% |
| `N#CC1(CO)CCN(Cc2ccccc2)CC1` | -11.04% |
| `O=C(CN1CCCC1)N1CCN(c2ccccc2)CC1` | 1.68% |
| `CC[C@H]1COCCN1C(=O)c1nn(C)c(C)c1Cl` | 4.277% |
| `NC(=O)C(c1ccc(Br)cc1F)N1CC[S+]([O-])CC1` (stereo not drawn) | 5.676% |
| `NC(=O)NC(=O)CN1CCCC1c1ccsc1` (stereo not drawn) | -15.55% |
| `CNC(=O)CN(CCO)Cc1cc(Br)ccc1F` | 3.236% |
| `CC(C)(C)OC(=O)N1CCN(CCS(N)(=O)=O)CC1` | -8.394% |
| `COCC(=O)N1CCCN(CCn2cc(Cl)cn2)CC1` | -3.032% |
| `Cc1cc(-n2cccn2)ccc1NC(=O)CN(C)C` | -18.55% |
| `CCO[C@H]1CN(Cc2csc(C(C)=O)c2)C[C@@H]1O` | 8.79% |
| `Nc1ccnc(-c2ccccc2)c1` | 11.9% |
| `O=C(CCc1cc(Cl)cs1)NCCN1CCOCC1` | -25.42% |
| `COc1ncccc1CNc1cnn(C)c(=O)c1Cl` | 21.19% |
| `O=C(NC1CCCc2occc21)c1cccnc1` (stereo not drawn) | -0.2181% |
| `Cc1nc(N)sc1C(=O)N1C[C@@H](N(C)C)[C@H](C(C)C)C1` | -14.98% |
| `Cc1noc(C)c1CC(=O)N(C)CC1CCCCO1` (stereo not drawn) | 1.809% |
| `CC(C)n1cccc1C(=O)N1C[C@H](C2CC2)[C@@H](N)C1` | -1.769% |
| `CN1CC(CN(C)C(=O)c2sccc2Cl)CC1=O` (stereo not drawn) | 7.387% |
| `COc1cc(CN2CCCNCC2)cc2c1OCO2` | 1.593% |
| `Cc1nnc(CN(C)Cc2cncn2C(C)C)o1` | 5.058% |
| `Cc1ccc(S(=O)(=O)NC(C)(C)CN)c2cccnc12` | 28.15% |
| `O=C(c1c[nH]nc1C1CCCNC1)N1CCOCC1` (stereo not drawn) | -12.09% |
| `COc1ccc(-c2csc(CC(N)=O)n2)cc1` | -1.267% |
| `O=C(NCCCn1cccn1)c1ccc2c(c1)OCO2` | 1.215% |
| `CCOC(=O)N1CCC(N2CCN(CCO)CC2)CC1` | -17.85% |
| `CCC1(CC)CCCN(C(=O)CS(=O)(=O)CC)CC1` | -3.984% |
| `CO[C@@H]1COCC[C@H]1NC(=O)c1ccncc1Cl` | -7.864% |
| `CC(C)N(C)C(=O)c1nccn1C` | 19.89% |
| `CNC(=O)C(C)(C)CNC(=O)Nc1ncc(C)cc1Br` | 7.99% |
| `CCC=C(C)C(=O)NCC(C)N1CCN(CC)CC1` (stereo not drawn) | 11.7% |
| `NCc1ccnc(O)c1` | 17.33% |
| `CC(CS(C)(=O)=O)N(C)C(=O)Cc1ccc(Cl)c(Cl)c1` (stereo not drawn) | -6.619% |
| `CC[C@H](CO)Nc1ccnc2cc(Br)cnc12` | 32.25% |
| `CN[C@@H](C)C(=O)N1CC(Oc2ccccc2OC)C1` | 4.491% |
| `Cc1ccc(C(C)NC(=O)CSc2cnn[nH]2)cc1C` (stereo not drawn) | -17.75% |
| `CSCC1CCCN1Cc1cccc(N)n1` (stereo not drawn) | 17.6% |
| `COCCNC(=O)CN1CCC(C)CC1` | 1.721% |
| `CC(C)N1CCN(C(C)C(=O)NC2CC2)CC1` (stereo not drawn) | -0.8481% |
| `COc1cc(C#N)ccc1S(=O)(=O)N[C@@H]1CCCNC1` | -0.7244% |
| `CCCC(=O)NC1CCCNC1` (stereo not drawn) | 21.88% |
| `COc1cccc(OCC(=O)NCC2CCCO2)c1` (stereo not drawn) | -14.58% |
| `N#Cc1ccc(S(=O)(=O)N[C@@H]2CCOC[C@H]2O)cc1` | 1.398% |
| `CCC[C@H](N)C(N)=O` | -5.786% |
| `CNC(=O)NCCOc1ccc2c(c1)OCO2` | -6.805% |
| `Cc1ccc(CCC(=O)Nc2ncnn2C)o1` | -10.86% |
| `Cc1nnc(SCC(N)=O)[nH]1` | 1.756% |
| `Clc1ccc(N2CCN(Cc3ncc[nH]3)CC2)nc1` | 15.57% |
| `CC(C)c1nnc2ccc(Cl)nn12` | -5.033% |
| `CN(C)c1ccc(C(=O)NCCC(O)C(F)(F)F)cc1` (stereo not drawn) | 1.37% |
| `CCNC(=O)c1cc(N2CCC(C(N)=O)C2)ccn1` (stereo not drawn) | -9.424% |
| `CCCC(=O)N1CCC2(CC1)NCCc1[nH]cnc12` | 2.008% |

Some entries from above, unchanged:

CNC(=O)CN(CCO)Cc1cc(Br)ccc1F gave 3.236%.
O=C(CN1CCCC1)N1CCN(c2ccccc2)CC1 gave 1.68%.
Cc1noc(C)c1CC(=O)N(C)CC1CCCCO1 (stereo not drawn) gave 1.809%.
NC(=O)C(c1ccc(Br)cc1F)N1CC[S+]([O-])CC1 (stereo not drawn) gave 5.676%.
CC(C)N1CCN(C(C)C(=O)NC2CC2)CC1 (stereo not drawn) gave -0.8481%.